Laboratory results taken from patent US8361445B2, “Formulations for treating and/or preventing black-line stains” (priority 2010, dated 2013).
At least one compound was matched to its structure with a doubt left.

Conditions: two patients with recurring black-line, teeth cleaned by a dental hygienist; solution of 250 mg tetracycline capsules in 100 ml water, twice a day for a week; monitored two years (first patient) and half a year (second)

With `CN(C)[C@@H]1C(O)=C(C(N)=O)C(=O)[C@@]2(O)C(O)=C3C(=O)c4c(O)cccc4[C@@](C)(O)[C@H]3C[C@@H]12` [tetracycline] the “recurrence of the black-line” value was “Neither one of the patients experienced the usual recurrence of the black-line”.
